Chains of the proteins cited; added tags and fusions are not shown. Lines headed by an entry give the natural chain unless they say otherwise; changes in a name come on top.
UniProt Q9H3S7: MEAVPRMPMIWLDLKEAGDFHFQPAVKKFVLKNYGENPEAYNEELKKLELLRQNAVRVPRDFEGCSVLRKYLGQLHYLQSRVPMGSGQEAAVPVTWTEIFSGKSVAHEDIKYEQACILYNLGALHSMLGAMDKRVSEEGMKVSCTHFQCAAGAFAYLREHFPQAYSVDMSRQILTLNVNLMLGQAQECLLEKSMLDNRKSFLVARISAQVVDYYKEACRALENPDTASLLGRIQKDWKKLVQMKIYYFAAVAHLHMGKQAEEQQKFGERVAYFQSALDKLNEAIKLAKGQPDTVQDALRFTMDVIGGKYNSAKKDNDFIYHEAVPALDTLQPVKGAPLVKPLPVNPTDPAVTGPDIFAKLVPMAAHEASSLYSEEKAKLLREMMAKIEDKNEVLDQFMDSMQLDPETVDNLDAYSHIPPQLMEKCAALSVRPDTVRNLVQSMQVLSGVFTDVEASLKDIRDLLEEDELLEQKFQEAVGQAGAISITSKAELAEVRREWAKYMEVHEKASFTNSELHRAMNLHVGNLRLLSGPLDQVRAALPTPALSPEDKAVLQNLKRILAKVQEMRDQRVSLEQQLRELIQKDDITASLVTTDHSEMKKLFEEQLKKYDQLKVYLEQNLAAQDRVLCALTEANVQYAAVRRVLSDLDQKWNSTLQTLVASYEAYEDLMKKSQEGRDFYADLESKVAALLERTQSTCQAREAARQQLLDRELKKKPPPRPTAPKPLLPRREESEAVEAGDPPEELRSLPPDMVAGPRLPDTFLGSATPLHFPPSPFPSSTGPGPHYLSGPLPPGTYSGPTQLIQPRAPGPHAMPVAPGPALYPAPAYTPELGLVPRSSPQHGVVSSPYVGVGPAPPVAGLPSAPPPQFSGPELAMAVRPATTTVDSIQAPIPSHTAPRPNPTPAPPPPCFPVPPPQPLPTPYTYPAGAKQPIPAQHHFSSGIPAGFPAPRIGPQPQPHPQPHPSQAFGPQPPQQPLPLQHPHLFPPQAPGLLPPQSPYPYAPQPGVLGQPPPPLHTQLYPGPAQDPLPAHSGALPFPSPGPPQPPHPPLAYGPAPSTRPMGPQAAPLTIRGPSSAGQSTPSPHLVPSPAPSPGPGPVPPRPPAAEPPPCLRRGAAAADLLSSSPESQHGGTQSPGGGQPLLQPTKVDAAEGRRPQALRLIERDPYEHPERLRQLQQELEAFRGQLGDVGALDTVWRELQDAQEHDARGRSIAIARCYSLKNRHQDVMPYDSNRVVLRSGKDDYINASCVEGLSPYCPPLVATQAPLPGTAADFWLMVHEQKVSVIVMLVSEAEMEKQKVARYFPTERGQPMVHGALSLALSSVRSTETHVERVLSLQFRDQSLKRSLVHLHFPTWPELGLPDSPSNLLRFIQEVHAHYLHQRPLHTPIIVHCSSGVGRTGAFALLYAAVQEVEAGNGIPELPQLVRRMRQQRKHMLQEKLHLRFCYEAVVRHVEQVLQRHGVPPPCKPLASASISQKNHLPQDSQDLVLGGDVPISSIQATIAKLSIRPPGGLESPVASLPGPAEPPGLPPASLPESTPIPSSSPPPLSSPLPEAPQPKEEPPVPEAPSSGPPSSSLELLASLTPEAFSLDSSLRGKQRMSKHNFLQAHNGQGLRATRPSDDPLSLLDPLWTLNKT
UniProt Q15276: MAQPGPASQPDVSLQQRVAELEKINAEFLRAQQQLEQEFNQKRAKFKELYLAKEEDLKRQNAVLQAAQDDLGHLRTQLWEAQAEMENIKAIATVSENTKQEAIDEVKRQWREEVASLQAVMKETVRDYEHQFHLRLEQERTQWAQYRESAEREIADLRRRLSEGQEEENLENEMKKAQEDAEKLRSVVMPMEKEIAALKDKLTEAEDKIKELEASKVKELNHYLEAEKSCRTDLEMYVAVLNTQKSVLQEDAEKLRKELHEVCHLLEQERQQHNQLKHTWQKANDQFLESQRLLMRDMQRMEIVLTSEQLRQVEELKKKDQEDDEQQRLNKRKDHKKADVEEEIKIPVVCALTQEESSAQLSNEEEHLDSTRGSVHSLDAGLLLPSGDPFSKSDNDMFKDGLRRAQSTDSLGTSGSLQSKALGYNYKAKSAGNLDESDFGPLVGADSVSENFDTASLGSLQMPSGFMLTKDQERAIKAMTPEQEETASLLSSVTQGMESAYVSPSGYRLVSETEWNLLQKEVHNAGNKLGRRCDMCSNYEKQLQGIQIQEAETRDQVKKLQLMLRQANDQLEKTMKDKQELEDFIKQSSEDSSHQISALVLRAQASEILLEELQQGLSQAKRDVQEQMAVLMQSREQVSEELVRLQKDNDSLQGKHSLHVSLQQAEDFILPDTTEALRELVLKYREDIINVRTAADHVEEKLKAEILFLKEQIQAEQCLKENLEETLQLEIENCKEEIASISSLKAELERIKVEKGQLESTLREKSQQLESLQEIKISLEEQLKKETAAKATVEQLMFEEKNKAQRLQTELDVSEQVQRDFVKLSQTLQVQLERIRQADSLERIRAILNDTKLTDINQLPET

In article PMC8627557:

biological target: full-length HA–HD-PTP (human) (UniProt Q9H3S7); assay: co-IP; lysates of HEK293T cells transfected with HA–HD-PTP constructs (with co-transfected GFP–Rabaptin-5 constructs, or endogenous Rabaptin-5); IP with anti-HA in IP buffer (25 mM Tris-HCl pH 7.5, 150 mM NaCl, 0.5% IGEPAL CA-630), 4°C; western blot

binding, binds:
GFP–Rabaptin-5 CC2-1 (from UniProt Q15276) (domain or fragment)
GFP–Rabaptin-5 ΔCC2-1 (from UniProt Q15276)
GFP–Rabaptin-5 ΔR5BD (from UniProt Q15276) (domain or fragment)

No constants are given. Whether binding was seen depends on the method and setting. In cells and extracts the contact can be indirect. Binding can be weak; no strength is given.
